Results as given in patent US5464935 (dated 1995).

Experiments:
[1] = general procedure: Boc solid-phase peptide synthesis; 4-methylbenzhydrylamine resin; dicyclohexylcarbodiimide and hydroxybenzotriazole; details: whole synthesis, scale 0.5 mmol
[2] = general procedure: Boc solid-phase peptide synthesis; 4-methyl benzhydrylamine resin; dicyclohexylcarbodiimide and hydroxybenzotriazole; details: whole synthesis, scale 0.5 mmol

| Substance | isolated mass [1] [mg] | crude mass [2] [mg] | isolated mass [2] [mg] |
| --- | --- | --- | --- |
| Asparaginyl-lysyl-threonyl-tryptophyl-threonyl-tryptophyl-valine-amide | 92 | – | – |
| Lysyl-threonyl-tryptophyl-threonyl-tryptophyl-valine-amide | – | 324 | 128 |
| Threonyl-tryptophyl-threonyl-tryptophyl-valine-amide | – | 287 | 126 |
